In patent US20050043236A1 (published 2005):
No constants are given. Whether binding was seen depends on the method and setting. Some binding calls cover weakened binding; strength is not graded here.

Sequences of proteins named here, by UniProt entry; tags and fusion partners are left off. A change or cut given only in a name is not applied to a line headed by its entry. A line that says so, or that is headed by a name, gives the form on record, which may keep a tag or linker.
human VEGF165 (P15692-4, form named): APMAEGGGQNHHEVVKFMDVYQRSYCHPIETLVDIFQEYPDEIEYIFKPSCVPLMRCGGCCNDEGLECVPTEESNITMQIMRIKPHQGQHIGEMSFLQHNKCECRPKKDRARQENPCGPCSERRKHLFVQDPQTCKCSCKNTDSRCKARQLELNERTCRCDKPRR

Biological target: T1, human VEGF165 (human, UniProt P15692-4 27-191)
T1 construct: also called hVEGF165
Test: summary of Example 2

B1: cleaved VEGF mini-trap (receptor)
chain: SDTGRPFVEMYSEIPEIIHMTEGRELVIPCRVTSPNITVTLKKFPLDTLIPDGKRIIWDSRKGFIISNATYKEIGLLTCEATVNGHLYKTNYLTHRQTNTIIDVVLSPSHGIELSVGEKLVLNCTARTELNVGIDFNWEYPSSKHQHKKLVNRDLKTQSGSEMKKFLSTLTIDGVTRSDQGLYTCAASSGLMTKKNSTFVRVHEKDKTHTCPPCLVPRGS
notes: Product of thrombin digestion of the uncleaved VEGF trap; also called thrombin-cleaved dimeric VEGF mini-trap; truncated trap
binding: binds
